Here are results for 2 molecules from paper PMC4103810, “Flexibility of PCNA-Protein Interface Accommodates Differential Binding Partners” (PLoS ONE, 2014).

Chains of the proteins cited; added tags and fusions are not shown.
UniProt P12004: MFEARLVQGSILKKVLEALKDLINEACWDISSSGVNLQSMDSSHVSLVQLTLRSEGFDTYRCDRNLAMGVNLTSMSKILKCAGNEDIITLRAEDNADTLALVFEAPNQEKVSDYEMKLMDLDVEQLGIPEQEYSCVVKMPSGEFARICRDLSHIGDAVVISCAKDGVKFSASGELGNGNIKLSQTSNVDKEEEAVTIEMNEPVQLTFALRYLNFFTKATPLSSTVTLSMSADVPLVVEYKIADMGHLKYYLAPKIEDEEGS

One experiment addresses T1, recombinant PCNA protein (human, UniProt P12004 1-261).
T1 construct: PCNA (proliferating cell nuclear antigen), human; The vector has a TEV protease site after the (His)6 tag, and no cleavage is described; also called (His)6-PCNA; source: E. coli BL21(DE3), purified (Ni-NTA, dialysis)
Kind of experiment: fluorescence polarisation; competition: increasing unlabeled 12-mer peptide against 50 nM N-terminal FITC-PL peptide and 1 µM PCNA (monomer concentration); 25 mM HEPES pH 7.4, 10% glycerol, 0.01% Triton X-100; 30 min at room temperature, read at 30°C; fraction of FITC-PL bound fitted to the complete (Eq. 6) or incomplete (Eq. 7, four-state) competition model of Roehrl et al.; estimated dissociation constants; both purified.

In experiment [1] the target is recombinant PCNA protein (N-terminal (His)6-PCNA) (human) (UniProt P12004). Kind of experiment: fluorescence polarisation; competition: increasing unlabeled peptide with 50 nM FITC-PL peptide and 1 µM PCNA (monomer concentration); 25 mM HEPES pH 7.4, 10% glycerol, 0.01% Triton X-100; 30 min at room temperature, read at 30°C; Ki from a modified Cheng-Prusoff equation; both purified. (Polarisation of emitted light reports the rotation of a fluorescent probe.)

No constants are given. Whether binding was seen depends on the method and setting.

Consider GVQRNHETAFQG [Mcl-1 12-mer PIP Box-like peptide], for which the binding entry in the experiment with recombinant PCNA protein is “no binding”.

GVQRNHETAFQG [Mcl-1 12-mer PIP Box-like peptide mimic]: the binding result in experiment [1] is “no binding”.
